Results on 57 compounds are retold here after PubChem BioAssay AID1487 (National Center for Advancing Translational Sciences (NCATS), 2009).

The list shows a part of the results. Further columns of the screen follow, without active or inactive calls. Most of these compounds were active or inconclusive in the main read-out, so they are no random draw. Words in brackets tell the shape of the fitted curve; partial curves, single points and poor fits give uncertain potencies.

In general, AC50 refers to the midpoint of the concentration-response curve, whichever way the signal moves.

A short description of this experiment: qHTS Assay for Modulators of Lamin A Splicing. The settings on record: HeLa LMNA splicing GFP/RFP minigene ratio, 48 h. The essentials:
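Read-out is the ratio of GFP to DsRed2 object intensity, acquired by 488 nm laser-scanning cytometry on HeLa lamin A-EGFP minigene reporter cells. Compound incubation 48 hrs at 37 °C in Opti-MEM with 2% FBS; DMSO 0.5% final.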

[1] abbreviates: measured here: RFP viability control channel.
Where [2] appears, read: measured here: GFP splicing reporter channel.

As for `COC(=O)c1c(-c2cccc3ccccc23)csc1NC(=O)Cc1ccc(OC)c(OC)c1`, under setting [1], the AC50 was 11.2 µM [rising, partial curve, poor fit].

Consider `N#CC1=C(N)S[C@@H](C(=O)c2ccc(F)cc2)[C@@H]1c1cccs1`, for which the AC50 by setting is: under setting [2], 31.6 µM [rising, single point]; under setting [1], 20 µM [rising, single point].

For the compound `COc1cc(SC)ccc1C(=O)N1CCN(c2ccc(O)cc2)CC1`, the AC50 under setting [1] was 35.5 µM [rising, single point].

Turning to `CCCCNC(=S)Nc1ccc(Cl)cc1`, under setting [1], the AC50 is 20 µM [rising, single point].

For `Cc1c(Cl)cccc1NC(=O)CSc1nc(=O)[nH]c2c1CCCC2`, the AC50 under setting [1] is 28.2 µM [falling, partial curve, poor fit].

As to `Cc1cccc(C)c1NC(=O)CCCSc1nnc(-c2ccc(F)cc2)n1-c1ccccc1`, the half-maximal activity concentration (AC50) is 3.55 µM [rising, partial curve, poor fit] under setting [2] and 22.4 µM [rising, partial curve] under setting [1].

Turning to `Clc1ccccc1-c1nnc2sc(-c3cccs3)nn12`, the AC50 under setting [1] was 15.8 µM [rising, single point].

For `CCn1c2ccccc2c2nnc(SCC(=O)Nc3cc(C)on3)nc21`, the AC50 by setting is: under setting [2], 0.316 µM [rising, partial curve, poor fit]; under setting [1], 7.08 µM [rising, partial curve, poor fit].

As for `CCc1nnc(NC(=O)/C=C/c2ccc(C)o2)s1`, the AC50 is, setting by setting: under setting [2], 35.5 µM [rising, single point]; under setting [1], 6.31 µM [rising, partial curve, poor fit].

Regarding `COc1ccc(C2(CNS(=O)(=O)c3ccccc3)CCOCC2)cc1`, under setting [2], the concentration at half-maximal activity (AC50) is 0.178 µM [rising, full curve, poor fit].

As for `COc1ccc(S(=O)(=O)NCC2CCCN(C(=O)c3sccc3C)C2)cc1` (configuration not stated), under setting [2], the AC50 was 28.2 µM [falling, single point].

Consider `CCc1nnc(NC(=O)CSc2nnc(-c3ccccc3NC(=O)c3ccccc3)o2)s1`, for which, under setting [1], the AC50 is 17.8 µM [rising, partial curve, poor fit].

As to `O=C(Nc1nc(-c2ccc3c(c2)OCO3)cs1)C1CC1`, the AC50 under setting [1] is 11.2 µM [rising, partial curve, poor fit].

As for `CC(C)(C)NC(=O)[C@@H]1CC[C@@H]2[C@@H]3CC[C@@H]4NC(=O)C=C[C@@]4(C)[C@H]3CC[C@]21C`, the AC50 reads like this: under setting [2], 1.12 µM [falling, single point]; under setting [1], 1 µM [falling, single point].

Take `O=C(C[n+]1cc(-c2ccc(Br)cc2)n2c1CCCCC2)c1ccccc1`: the half-maximal activity concentration (AC50) under setting [1] was 12.6 µM [rising, single point].

As for `COc1ccccc1CNC(=O)C1CCN(C2=NS(=O)(=O)C(c3ccc(C)c(C)c3)=C2C)CC1`, the AC50 under setting [2] was 35.5 µM [falling, single point] and the concentration at half-maximal activity (AC50) under setting [1] is 20 µM [falling, partial curve, poor fit].

Turning to `CC(C)Cc1nn2c(=O)cc(COC(=O)c3cccc(NS(C)(=O)=O)c3)nc2s1`, the concentration at half-maximal activity (AC50) under setting [1] was 0.00447 µM [falling, full curve, poor fit].

With `Cc1ccc(C)c(N2CCN(c3nc4ccccc4c(=O)n3Cc3ccccc3)CC2)c1`, under setting [1], the concentration at half-maximal activity (AC50) is 11.2 µM [rising, partial curve].

With `Cc1cccc(CSc2ncnc3ccccc23)c1`, under setting [1], the concentration at half-maximal activity (AC50) is 0.112 µM [falling, full curve, poor fit].

`COc1cc(C2=NOC(C(=O)NCc3ccc(F)cc3)C2)cc(OC)c1OC` (configuration not stated): the concentration at half-maximal activity (AC50) under setting [1] was 2.82 µM [rising, full curve].

Consider `c1ccc(-c2noc(CN3CCN(C(c4ccccc4)c4ccccc4)CC3)n2)cc1`, for which, under setting [1], the AC50 is 14.1 µM [rising, single point].

In the case of `CC1CCN(c2csc3ccc(F)cc3c2=O)CC1`, under setting [2], the AC50 was 0.02 µM [falling, full curve, poor fit].

Regarding `CCOc1ccccc1Nc1nc(-c2sc(NC(=O)c3ccco3)nc2C)cs1`, the half-maximal activity concentration (AC50) under setting [1] was 22.4 µM [falling, partial curve, poor fit].

On to `O=C(NC1CCCCC1)C(c1cccnc1)N(C(=O)CCl)c1ccc(F)cc1` (configuration not stated), for which, under setting [1], the AC50 is 2.24 µM [rising, partial curve].

As for `CCOC(=O)N/N=C/c1ccc(Oc2ccccc2)cc1`, the AC50 under setting [2] is 35.5 µM [falling, single point].

As for `CC(C)N1CCc2c(sc(NC(=O)c3ccc(S(=O)(=O)N(C)C4CCCCC4)cc3)c2C(N)=O)C1`, the concentration at half-maximal activity (AC50) by setting is: under setting [2], 14.1 µM [falling, single point]; under setting [1], 35.5 µM [falling, single point].

For the compound `Fc1ccc(CNC(=S)Nc2ccc(OC(F)F)cc2)cc1`, the AC50 under setting [1] was 35.5 µM [rising, single point].

As to `Cc1ccc(C(C)C)c(OCc2ccc(C(=O)N/N=C/c3ccc(O)c(O)c3)cc2)c1`, the concentration at half-maximal activity (AC50) under setting [1] is 28.2 µM [rising, single point].

For the compound `O=S(=O)(c1ccc(Cl)s1)N1CCC(Cc2ccccc2)CC1`, the AC50 is 35.5 µM [rising, single point] under setting [2] and 35.5 µM [rising, single point] under setting [1].

In the case of `Cc1ccccc1NCc1nnc2n1CCCCC2`, the AC50 under setting [1] was 6.31 µM [rising, partial curve, poor fit].

Consider `COc1ccc(CNc2ncnc3ccc(-c4ccoc4)cc23)c(OC)c1`, for which the half-maximal activity concentration (AC50) runs as follows: under setting [2], 11.2 µM [falling, partial curve]; under setting [1], 12.6 µM [falling, partial curve].

Consider `Cc1nc2sc(C(c3cccc(F)c3)N3CCC(O)CC3)c(O)n2n1` (configuration not stated), for which the AC50 under setting [1] was 35.5 µM [rising, single point].

Turning to `CCc1c(C(=O)Nc2ccncc2)csc1C`, the AC50 reads like this: under setting [2], 12.6 µM [rising, single point]; under setting [1], 12.6 µM [rising, partial curve].

Consider `O=C(CSc1ncn[nH]1)N1N=C2/C(=C/c3ccccc3)CCCC2C1c1ccccc1` (configuration not stated), for which, under setting [1], the AC50 was 17.8 µM [rising, single point].

As for `c1ccc(Nc2nc(N3CCOCC3)nc(N3CCOCC3)n2)cc1`, the concentration at half-maximal activity (AC50) under setting [1] is 15.8 µM [rising, partial curve].

Turning to `COc1cc(OC)c(C(=O)N2CCCC2)cc1OC`, the concentration at half-maximal activity (AC50) under setting [2] was 11.2 µM [falling, partial curve, poor fit].

Regarding `COc1ccc(C2N=C(c3ccccc3)C(C)(C)N2O)cc1OC` (configuration not stated), the AC50 under setting [2] was 3.98 µM [rising, full curve, poor fit].

Turning to `O=c1c(Cl)nc2cc(Cl)ccc2n1CCNc1ncc(C(F)(F)F)cc1Cl`, the AC50 by setting is: under setting [2], 11.2 µM [falling, partial curve]; under setting [1], 7.08 µM [falling, partial curve].

`CCC(OC(=O)C1=Cc2ccccc2OC1)C(=O)NCc1ccco1` (configuration not stated): the AC50 under setting [2] is 8.91 µM [falling, single point].

As for `CCn1c(C)c(/C=N/Nc2nc3ccccc3s2)c2ccccc21`, the AC50 was 0.01 µM [falling, full curve, poor fit] under setting [2] and 0.00891 µM [falling, full curve, poor fit] under setting [1].

As for `COc1ccc(C2CC(=O)c3cnn(-c4nc(C)cc(C)n4)c3C2)cc1` (configuration not stated), the AC50 under setting [2] is 25.1 µM [rising, single point].

Turning to `CC(C)c1ccc(NC(=O)CSC2=Nc3ccccc3C3=NC(CCC(=O)NCc4ccc(F)cc4)C(=O)N23)cc1` (configuration not stated), the AC50 under setting [2] was 0.0631 µM [falling, full curve, poor fit].

Consider `O=C(/C=C/c1cccs1)Nc1ccc(Br)cn1`, for which, under setting [1], the half-maximal activity concentration (AC50) is 0.112 µM [rising, full curve].

As to `c1ccc(Cc2nc3ccccc3n2Cc2ccccc2)cc1`, under setting [1], the concentration at half-maximal activity (AC50) is 31.6 µM [rising, single point].

For the compound `CN1C(=O)c2ccccc2C(C(=O)NCC2CCCO2)C1c1c[nH]c2ccccc12` (configuration not stated), the AC50 under setting [1] is 4.47 µM [rising, full curve, poor fit].

`Cc1ccc(C2=NOC(=O)/C2=C\C=C\c2ccccc2)cc1`: under setting [1], the AC50 is 35.5 µM [falling, single point].

Turning to `CNc1nc(Nc2ccc(Br)cc2)nc(N)c1[N+](=O)[O-]`, the concentration at half-maximal activity (AC50) reads like this: under setting [2], 0.708 µM [falling, full curve, poor fit]; under setting [1], 1.58 µM [falling, full curve].

In the case of `CN(C)c1cc[n+](Cc2c(Cl)cccc2Cl)cc1`, the AC50 under setting [1] is 12.6 µM [rising, single point].

On to `O=C(Cn1nnc(-c2ccc(F)cc2)n1)Nc1ccc2c(c1)OCCO2`, for which, under setting [1], the concentration at half-maximal activity (AC50) was 14.1 µM [rising, single point].

As to `COc1cccc(C(NC(=O)c2ccccc2F)NC(=O)c2ccccc2F)c1`, the half-maximal activity concentration (AC50) under setting [2] was 0.0251 µM [falling, full curve, poor fit].

`Fc1cccc(/C=N/Nc2ncnc3nc[nH]c23)c1`: the half-maximal activity concentration (AC50) under setting [2] is 5.62 µM [falling, partial curve, poor fit] and the AC50 under setting [1] was 7.94 µM [falling, partial curve].

Turning to `COc1ccc(C(=O)NNC(=O)CN2CCC(n3nnc4cc(C)ccc43)CC2)cc1`, under setting [1], the half-maximal activity concentration (AC50) is 17.8 µM [rising, partial curve].

`CCCCOc1ccc(/C=C/C(=O)OCC(=O)c2c(N)n(C)c(=O)n(C)c2=O)cc1OCC`: the AC50 is 17.8 µM [falling, partial curve, poor fit] under setting [2] and 22.4 µM [falling, partial curve, poor fit] under setting [1].

Regarding `Cc1cc(F)ccc1NC(=O)C(C(C)C)N1Cc2ccccc2C1=O` (configuration not stated), the concentration at half-maximal activity (AC50) under setting [1] was 0.891 µM [falling, full curve, poor fit].

On to `CC1(C)CC(=O)C2=C(C1)OC(N)=C(C#N)C2c1cn(-c2ccccc2)nc1-c1ccccc1` (configuration not stated), for which the half-maximal activity concentration (AC50) under setting [1] was 17.8 µM [rising, partial curve].

On to `Cc1cc(Nc2ccc(N3CCC(C)CC3)cc2)n2ncnc2n1`, for which the half-maximal activity concentration (AC50) under setting [1] was 14.1 µM [rising, single point].

On to `CC(C(=O)Nc1ccc(S(=O)(=O)N2CCOCC2)cc1)N1C(=O)C2CC=CCC2C1=O` (configuration not stated), for which the AC50 under setting [1] was 0.0282 µM [rising, full curve, poor fit].
